Key:
Type in all cases: in vitro ADME
[1] = test system: human hepatocytes; assay: Metabolite characterization in human hepatocytes; conditions: human hepatocyte 1 h incubates of ETN101; ND:<1.2E+05 peak area
Description: (§1) We mixed 60 μL aliquots of 40 μM ETN101 in incubation medium and an equal volume of human, mouse, rat, dog, or monkey hepatocyte suspension in 96-well plates and incubated for 0 or 1 h in a CO2 incubator at 37 °C. The reactions were quenched by adding 120 µL of ice-cold acetonitrile to each well, and the cell suspension was sonicated for 5 min at 4 °C. Subsequently, centrifugation was carried out at 15,000× g for 10 min at 4 °C. Next, the supernatants were evaporated to dryness using a vacuum concentrator, and residues were re-dissolved in 70 μL of 30% acetonitrile. Each sample (5 μL aliquots) was analyzed using LC–HRMS system.
(§2) For metabolite characterization, a Vanquish HPLC system (Thermo Fisher Scientific, San José, CA, USA) coupled with a Q-Exactive Orbitrap mass spectrometer (Thermo Fisher Scientific Inc., Waltham, MA, USA) was used at Core Research Support Center for Natural Products and Medical Materials at Yeungnam University. […] The eluent from the column was directly injected into the mass spectrometer using a heated electrospray ionization (HESI) source in positive ionization mode. […] The spray voltage was 3.0 kV and the capillary temperature was 320 °C. […] The parallel reaction monitoring (PRM) mode was used to obtain the MS^2 spectra of putative metabolites detected at low peak intensities in the data-dependent MS^2 acquisition mode. […]

[2] = test system: mouse hepatocytes; assay: Metabolite characterization in mouse hepatocytes; conditions: mouse hepatocyte 1 h incubates of ETN101; ND:<1.2E+05 peak area
Description: as §1, §2

[3] = test system: rat hepatocytes; assay: Metabolite characterization in rat hepatocytes; conditions: rat hepatocyte 1 h incubates of ETN101; ND:<1.2E+05 peak area
Description: as §1, §2

[4] = test system: dog hepatocytes; assay: Metabolite characterization in dog hepatocytes; conditions: dog hepatocyte 1 h incubates of ETN101; ND:<1.2E+05 peak area
Description: as §1, §2

[5] = test system: monkey hepatocytes; assay: Metabolite characterization in monkey hepatocytes; conditions: monkey hepatocyte 1 h incubates of ETN101; ND:<1.2E+05 peak area
Description: as §1, §2

- Relative peak area (%) [1]: 0.1%
- Relative peak area (%) [2]: 0.2%
- Relative peak area (%) [3]: < 0.1%
- Relative peak area (%) [4]: 0.1%
- Relative peak area (%) [5]: 0.1%
Structure (SMILES): Nc1ccc(-c2nc3ccc(O)cc3s2)cc1 [M3, 6-OH-CJM-126]

Reference: article PMC11356571, “The Comparative Metabolism of a Novel Hepatocellular Carcinoma Therapeutic Agent, 2,3-Diamino-N-(4-(benzo[d]thiazol-2-yl)phenyl)propanamide, in Human and Animal Hepatocytes” (Metabolites, 2024)
